Some results were stated once for a whole list of compounds, not compound by compound.
Biological target: recombinant HuBraf V600E (Homo sapiens, UniProt P15056, V600E)
Assay: B-raf Homogenous Time Resolved Fluorescent (HTRF) kinase assay
Type: biochemical
Conditions: substrate MEK1, 10 uM ATP; threshold lists; read-out: IC50 for the inhibition of B-raf as measured by the HTRF assay
Procedure: A Homogeneous Time Resolved Fluorescence (HTRF) kinase assay was established to assay the ability of compounds to inhibit human mutant Braf kinase activity on the substrate MEK1. […] The final concentration of the kinase reaction buffer is 50 mM Tris-HCL pH 7.5, 10 mM MgCl2, 0.5% glucose, 0.5 mM DTT, 0.01% BSA.
The detection reaction proceeds for one hour and is read on a RubyStar (BMG Labtech) counter. IC50s for the test compounds are generated using Excel-XLfit software.

Protein sequences, listed by entry. Tags and fused reporters are not part of them.
UniProt P15056, whole entry V600E: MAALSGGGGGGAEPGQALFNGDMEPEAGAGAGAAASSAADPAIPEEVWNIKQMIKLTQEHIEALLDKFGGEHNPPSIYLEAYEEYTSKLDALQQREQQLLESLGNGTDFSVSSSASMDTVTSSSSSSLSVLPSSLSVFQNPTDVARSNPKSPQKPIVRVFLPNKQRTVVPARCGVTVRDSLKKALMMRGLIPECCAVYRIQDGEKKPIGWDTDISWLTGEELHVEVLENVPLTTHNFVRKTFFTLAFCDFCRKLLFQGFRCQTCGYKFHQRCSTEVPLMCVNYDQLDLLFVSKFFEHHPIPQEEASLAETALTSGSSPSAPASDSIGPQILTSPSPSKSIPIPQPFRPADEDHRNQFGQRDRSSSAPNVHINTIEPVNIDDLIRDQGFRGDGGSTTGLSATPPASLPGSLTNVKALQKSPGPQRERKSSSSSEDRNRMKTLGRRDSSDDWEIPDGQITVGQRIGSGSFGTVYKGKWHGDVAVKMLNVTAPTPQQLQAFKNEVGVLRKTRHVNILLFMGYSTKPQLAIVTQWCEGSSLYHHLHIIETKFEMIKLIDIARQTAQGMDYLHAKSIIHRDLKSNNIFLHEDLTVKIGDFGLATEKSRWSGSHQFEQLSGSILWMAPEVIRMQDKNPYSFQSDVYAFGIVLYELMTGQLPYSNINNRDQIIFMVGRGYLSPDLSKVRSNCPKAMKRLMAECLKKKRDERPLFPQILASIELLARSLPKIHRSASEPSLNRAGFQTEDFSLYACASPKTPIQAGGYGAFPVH

Row | Structure (SMILES) | IC50 [µM]
1 | CNc1ncc2cc(-c3c(C)ccc4c(Nc5cccc(Cl)c5)nccc34)ccc2n1 [Example 29, 6-(1-((3-chlorophenyl)amino)-6-methyl-5-isoquinolinyl)-N-methyl-2-quinazolinamine] | ≤ 5
2 | Cc1ccc2c(Nc3cccc(OC(F)(F)F)c3)nccc2c1Nc1ncccc1-c1ccncn1 [Example 18, 6-methyl-N^5-(3-(4-pyrimidinyl)-2-pyridinyl)-N^1-(3-((trifluoromethyl)oxy)phenyl)-1,5-isoquinolinediamine] | ≤ 5
3 | CNc1cc(-c2cccnc2Nc2c(C)ccc3c(Nc4cccc(C(F)(F)F)c4)ncnc23)ncn1 [Example 337, 7-methyl-N8-(3-(6-(methylamino)pyrimidin-4-yl)pyridin-2-yl)-N4-(3-(trifluoromethyl)phenyl)quinazoline-4,8-diamine] | ≤ 5
4 | CNc1ncc2cc(-c3c(C)ccc4c(Nc5ccc(Cl)c(C(F)(F)F)c5)ncnc34)ccc2n1 [Example 55, N^4′-(4-chloro-3-(trifluoromethyl)phenyl)-N^2,7′-dimethyl-6,8′-biquinazoline-2,4′-diamine] | ≤ 5
5 | Cc1ccc2c(Nc3cccc(C(F)(F)F)c3)nccc2c1Nc1ncccc1-c1ccncn1 [Example 7, 6-methyl-N^5-(3-(4-pyrimidinyl)-2-pyridinyl)-N^1-(3-(trifluoromethyl)phenyl)-1,5-isoquinolinediamine] | ≤ 5
6 | CNc1ncc2cc(-c3c(C)ccc4c(NC5CCC(C(C)(C)C)CC5)ncnc34)ccc2n1 (stereo not drawn) [Example 57, N^4′-(4-(1,1-dimethylethyl)cyclohexyl)-N^2,7′-dimethyl-6,8′-biquinazoline-2,4′-diamine] | ≤ 5
7 | CNc1ncc2cc(-c3c(C)sc4c(Nc5cccc(C(F)(F)F)c5)nccc34)ccc2n1 [Example 393, N-methyl-6-(2-methyl-7-(3-(trifluoromethyl)phenylamino)thieno[2,3-c]pyridin-3-yl)quinazolin-2-amine] | ≤ 5
8 | CNc1ncc2cc(-c3c(C)ccc4c(Nc5ccc6c(c5)N(C(C)=O)CC6(C)C)ncnc34)ccc2n1 [Example 54, N^4′-(1-acetyl-3,3-dimethyl-2,3-dihydro-1H-indol-6-yl)-N^2,7′-dimethyl-6,8′-biquinazoline-2,4′-diamine] | ≤ 5
9 | CNc1ncc2cc(-c3c(C)ccc4c(Nc5ccc6c(c5)NCC6(C)C)nccc34)ccc2n1 [Example 79, 6-(1-((3,3-dimethyl-2,3-dihydro-1H-indol-6-yl)amino)-6-methyl-5-isoquinolinyl)-N-methyl-2-quinazolinamine] | ≤ 5
10 | CNc1cc(-c2cccnc2Nc2c(C)ccc3c(Nc4cc(C(C)(C)C)nn4C)nccc23)ncn1 [Example 69, N^1-(3-tert-butyl-1-methyl-1H-pyrazol-5-yl)-6-methyl-N^5-(3-(6-(methylamino)pyrimidin-4-yl)pyridin-2-yl)isoquinoline-1,5-diamine] | ≤ 5
11 | Cc1ccc2c(Nc3cccc(Cl)c3)nccc2c1Nc1ncccc1-c1ccncn1 [Example 14, N^1-(3-chlorophenyl)-6-methyl-N^5-(3-(4-pyrimidinyl)-2-pyridinyl)-1,5-isoquinolinediamine] | ≤ 5
12 | CNc1ncc2cc(-c3c(C)ccc4c(Nc5cccc(C(F)(F)F)c5)nsc34)ccc2n1 [Example 398, N-methyl-6-(6-methyl-3-(3-(trifluoromethyl)phenylamino)benzo[d]isothiazol-7-yl)quinazolin-2-amine] | ≤ 5
13 | COc1cc(Nc2nccc3c(Nc4ncccc4-c4ccncn4)cccc23)cc(C(F)(F)F)c1 [Example 8, N^1-(3-(methyloxy)-5-(trifluoromethyl)phenyl)-N^5-(3-(4-pyrimidinyl)-2-pyridinyl)-1,5-isoquinolinediamine] | ≤ 5
14 | CNc1nccc2c(Nc3ncccc3-c3ccncn3)c(C)ccc12 [Example 17, N^1-6-dimethyl-N^5-(3-(4-pyrimidinyl)-2-pyridinyl)-1,5-isoquinolinediamine] | ≤ 5
15 | CNc1ncc2cc(-c3c(C)ccc4c(Nc5cc(C(C)(C)C)on5)nccc34)ccc2n1 [Example 27, 6-(1-((5-(1,1-dimethylethyl)-3-isoxazolyl)amino)-6-methyl-5-isoquinolinyl)-N-methyl-2-quinazolinamine] | ≤ 5
16 | CNc1ncc2cc(-c3c(C)ccc4c(Nc5cccc(C(C)(C)C)c5)nccc34)ccc2n1 [Example 28, 6-(1-((3-(1,1-dimethylethyl)phenyl)amino)-6-methyl-5-isoquinolinyl)-N-methyl-2-quinazolinamine] | ≤ 5
17 | CNc1ncc2cc(-c3c(C)ccc4c(Nc5ccc(OC)c(C(F)(F)F)c5)nn(C)c34)ccc2n1 [Example 64, 6-(1,6-dimethyl-3-((4-(methyloxy)-3-(trifluoromethyl)phenyl)amino)-1H-indazol-7-yl)-N-methyl-2-quinazolinamine] | ≤ 5
18 | CNc1ncc2cc(-c3c(C)ccc4c(Oc5cccc(C(F)(F)F)c5)nccc34)ccc2n1 [Example 395, N-methyl-6-(6-methyl-1-(3-(trifluoromethyl)phenoxy)isoquinolin-5-yl)quinazolin-2-amine] | ≤ 5

Row | Structure (SMILES) | IC50 [µM]
19 | CNc1cc(-c2cccnc2Nc2c(C)ccc3c(Nc4cccc(OC(F)(F)F)c4)nccc23)ncn1 [Example 68, 6-methyl-N^5-(3-(6-(methylamino)-4-pyrimidinyl)-2-pyridinyl)-N^1-(3-((trifluoromethyl)oxy)phenyl)-1,5-isoquinolinediamine] | ≤ 5
20 | CNc1ncc2cc(-c3c(C)ccc4c(Nc5cccc(OC(F)(F)F)c5)nc(C)nc34)ccc2n1 [Example 86, 6-(2,7-dimethyl-4-(3-(trifluoromethoxy)phenylamino)quinazolin-8-yl)-N-methylquinazolin-2-amine] | ≤ 5
21 | Cc1ccc2c(Nc3cccc(C(C)C)c3)nccc2c1Nc1ncccc1-c1ccncn1 [Example 12, 6-methyl-N^1-(3-(1-methylethyl)phenyl)-N^5-(3-(4-pyrimidinyl)-2-pyridinyl)-1,5-isoquinolinediamine] | ≤ 5
22 | CNc1ncc2cc(-c3c(C)cnc4c(Nc5ccc(OC)c(C(F)(F)F)c5)nccc34)ccc2n1 [Example 410] | ≤ 5
23 | CNc1ncc2cc(-c3c(C)ccc4c(Nc5cccc(OC(C)C)c5)nccc34)ccc2n1 [Example 25, N-methyl-6-(6-methyl-1-((3-((1-methylethyl)oxy)phenyl)amino)-5-isoquinolinyl)-2-quinazolinamine] | ≤ 5
24 | Cc1ccc(C(F)(F)F)cc1Nc1nccc2c(Nc3ncccc3-c3ccncn3)c(C)ccc12 [Example 344, 6-methyl-N1-(2-methyl-5-(trifluoromethyl)phenyl)-N5-(3-(pyrimidin-4-yl)pyridin-2-yl)isoquinoline-1,5-diamine] | ≤ 5
25 | CNc1ncc2cc(-c3c(C)ccc4c(Nc5nnc(C6CC6)s5)nccc34)ccc2n1 [Example 36, 6-(1-((5-cyclopropyl-1,3,4-thiadiazol-2-yl)amino)-6-methyl-5-isoquinolinyl)-N-methyl-2-quinazolinamine] | ≤ 5
26 | CNc1ncc2cc(-c3c(C)ccc4c(Nc5cccc(C(F)(F)F)c5)nn(C)c34)ccc2n1 [Example 63, 6-(1,6-dimethyl-3-((3-(trifluoromethyl)phenyl)amino)-1H-indazol-7-yl)-N-methyl-2-quinazolinamine] | ≤ 5
27 | CNc1ncc2cc(-c3c(C)ccc4c(Nc5ccc(F)c(OC(C)C)c5)nccc34)ccc2n1 [Example 40, 6-(1-((4-fluoro-3-((1-methylethyl)oxy)phenyl)amino)-6-methyl-5-isoquinolinyl)-N-methyl-2-quinazolinamine] | ≤ 5
28 | Cc1ccc2c(Nc3ccc(C(C)(C)C)cc3)nccc2c1Nc1ncccc1-c1ccncn1 [Example 16, N^1-(4-(1,1-dimethylethyl)phenyl)-6-methyl-N^5-(3-(4-pyrimidinyl)-2-pyridinyl)-1,5-isoquinolinediamine] | ≤ 5
29 | CNc1ncc2cc(-c3c(C)ccc4c(Nc5ccc(OC)c(C(F)(F)F)c5)nsc34)ccc2n1 [Example 399, 6-(3-(4-methoxy-3-(trifluoromethyl)phenylamino)-6-methylbenzo[d]isothiazol-7-yl)-N-methylquinazolin-2-amine] | ≤ 5
30 | CNc1ncc2cc(-c3c(C)ccc4c(Nc5cccc(OC(F)(F)F)c5)ncnc34)ccc2n1 [Example 50, N^2,7′-dimethyl-N^4′-(3-((trifluoromethyl)oxy)phenyl)-6,8′-biquinazoline-2,4′-diamine] | ≤ 5
31 | CNc1ncc2cc(-c3c(C)ccc4c(Nc5cc(C(F)(F)F)ccn5)nccc34)ccc2n1 [Example 34, N-methyl-6-(6-methyl-1-((4-(trifluoromethyl)-2-pyridinyl)amino)-5-isoquinolinyl)-2-quinazolinamine] | ≤ 5
32 | CNc1ncc2cc(-c3c(C)ccc4c(Nc5cc(C(C)(C)C)nn5C)ncnc34)ccc2n1 [Example 53, N^4′-(3-(1,1-dimethylethyl)-1-methyl-1H-pyrazol-5-yl)-N^2,7′-dimethyl-6,8′-biquinazoline-2,4′-diamine] | ≤ 5
33 | CNc1ncc2cc(-c3c(C)ccc4c(Nc5cccc(C(F)(F)F)c5)ncnc34)ccc2n1 [Example 51, N^2,7′-dimethyl-N^4′-(3-(trifluoromethyl)phenyl)-6,8′-biquinazoline-2,4′-diamine] | ≤ 5
34 | CNc1cc(-c2cccnc2Nc2c(C)ccc3c(Nc4ccc(Cl)c(C)c4)nccc23)ncn1 [Example 352] | ≤ 5
35 | Cc1ccc2c(Nc3cccc(C(C)(C)C)c3)nccc2c1Nc1ncccc1-c1ccncn1 [Example 10, N^1-(3-(1,1-dimethylethyl)phenyl)-6-methyl-N^5-(3-(4-pyrimidinyl)-2-pyridinyl)-1,5-isoquinolinediamine] | ≤ 5
36 | CNc1ncc2cc(-c3c(C)ccc4c(Nc5ccc(OC)c(C(F)(F)F)c5)nccc34)ccc2n1 [Example 35, N-methyl-6-(6-methyl-1-((4-(methyloxy)-3-(trifluoromethyl)phenyl)amino)-5-isoquinolinyl)-2-quinazolinamine] | ≤ 5

— patent US8440674B2, “Substituted pyrimidine compounds as RAF inhibitors and methods of use” (Amgen Inc., priority 2005, dated 2013)
